Measured values reported in article doi:10.1101/2024.05.30.596635.
No constants are given. Whether binding was seen depends on the method and setting. In cells and extracts the contact can be indirect. Some results given as binding are weak or reduced against the parent protein; the word gives no strength.

By UniProt entry, the sequences of proteins in these tests, tags left out.
UniProt Q16613: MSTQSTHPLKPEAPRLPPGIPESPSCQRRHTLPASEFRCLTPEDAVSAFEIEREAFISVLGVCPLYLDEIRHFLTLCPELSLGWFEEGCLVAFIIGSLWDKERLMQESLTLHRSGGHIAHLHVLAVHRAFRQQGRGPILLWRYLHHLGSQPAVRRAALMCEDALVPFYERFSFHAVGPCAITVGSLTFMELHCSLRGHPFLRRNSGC

T1: acetylserotonin O-methyltransferase (human (endogenous in platelets)) (UniProt P46597)
T1 sequence: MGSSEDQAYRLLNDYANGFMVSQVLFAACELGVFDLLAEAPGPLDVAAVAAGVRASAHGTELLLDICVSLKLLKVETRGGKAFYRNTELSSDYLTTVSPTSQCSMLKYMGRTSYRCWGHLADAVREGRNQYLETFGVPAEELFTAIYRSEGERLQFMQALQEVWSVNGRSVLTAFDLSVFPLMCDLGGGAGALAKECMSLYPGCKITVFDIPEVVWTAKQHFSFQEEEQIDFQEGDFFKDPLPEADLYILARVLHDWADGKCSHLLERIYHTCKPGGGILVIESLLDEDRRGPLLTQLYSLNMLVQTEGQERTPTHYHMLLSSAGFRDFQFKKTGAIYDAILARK


Key:
[1] = target: T1, acetylserotonin O-methyltransferase (human (endogenous in platelets)); assay: co-IP + native MS
[2] = target: aralkylamine N-acetyltransferase (human (endogenous in platelets)) (UniProt Q16613); assay: co-IP + native MS

binding [1] | binding [2] | Molecule
binds |  | aralkylamine N-acetyltransferase (from UniProt Q16613 1-207) (enzyme)
 | binds | acetylserotonin O-methyltransferase (enzyme, UniProt P46597 1-345) MGSSEDQAYRLLNDYANGFMVSQVLFAACELGVFDLLAEAPGPLDVAAVAAGVRASAHGTELLLDICVSLKLLKVETRGGKAFYRNTELSSDYLTTVSPTSQCSMLKYMGRTSYRCWGHLADAVREGRNQYLETFGVPAEELFTAIYRSEGERLQFMQALQEVWSVNGRSVLTAFDLSVFPLMCDLGGGAGALAKECMSLYPGCKITVFDIPEVVWTAKQHFSFQEEEQIDFQEGDFFKDPLPEADLYILARVLHDWADGKCSHLLERIYHTCKPGGGILVIESLLDEDRRGPLLTQLYSLNMLVQTEGQERTPTHYHMLLSSAGFRDFQFKKTGAIYDAILARK
